Reference: the supplement of paper PMC8728848
The other results are listed elsewhere or left out.

Legend:
Assay in all cases: glycan array binding signal (z-score within array); higher = stronger binding
Details in all cases: glycan notation: IUPAC condensed, linker removed
[1] = target: Gal(a1-3)Gal(b1-4)GlcNAc(b1-2)Man(a1-3)[Gal(a1-3)Gal(b1-4)GlcNAc(b1-2)Man(a1-6)]Man(b1-4)GlcNAc(b1-4)GlcNAc
Method in brief: (§1)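 From the Consortium for Functional Glycomics database, 3228 arrays were curated, keeping only those whose protein sequence was available. Binding is given as a within-array Z-score averaged across arrays sharing a protein sequence and across linkers. Negative Z-scores can be read as non-binding.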

[2] = target: Gal(a1-3)Gal(b1-4)GlcNAc(b1-3)GalNAc
Method in brief: as §1

[3] = target: Gal(a1-3)Gal(b1-4)GlcNAc(b1-6)GalNAc
Method in brief: as §1

[4] = target: Gal(a1-3)Gal(b1-4)[Fuc(a1-3)]GlcNAc
Method in brief: as §1

[5] = target: Gal(a1-3)Gal(b1-4)[Fuc(a1-3)]GlcNAc(b1-2)Man(a1-3)[Gal(a1-3)Gal(b1-4)[Fuc(a1-3)]GlcNAc(b1-2)Man(a1-6)]Man(b1-4)GlcNAc(b1-4)GlcNAc
Method in brief: as §1

[6] = target: Gal(a1-3)GalNAc
Method in brief: as §1

[7] = target: Gal(a1-3)[Gal(a1-4)]Gal(b1-4)GlcNAc
Method in brief: as §1

[8] = target: Gal(a1-4)Gal(b1-3)GlcNAc(b1-2)Man(a1-3)[Gal(a1-4)Gal(b1-3)GlcNAc(b1-2)Man(a1-6)]Man(b1-4)GlcNAc(b1-4)GlcNAc
Method in brief: as §1

[9] = target: Gal(a1-4)Gal(b1-4)Glc
Method in brief: as §1

[10] = target: Gal(a1-4)Gal(b1-4)GlcNAc
Method in brief: as §1

[11] = target: Gal(a1-4)Gal(b1-4)GlcNAc(b1-2)Man(a1-3)[Gal(a1-4)Gal(b1-4)GlcNAc(b1-2)Man(a1-6)]Man(b1-4)GlcNAc(b1-4)GlcNAc
Method in brief: as §1

[12] = target: Gal(a1-4)Gal(b1-4)GlcNAc(b1-3)Gal(b1-4)Glc
Method in brief: as §1

[13] = target: Gal(a1-4)GlcNAc
Method in brief: as §1

[14] = target: Gal(a1-6)Glc
Method in brief: as §1

[15] = target: Gal(b1-2)Gal
Method in brief: as §1

[16] = target: Gal(b1-3)Gal
Method in brief: as §1

[17] = target: Gal(b1-3)Gal(b1-4)GlcNAc
Method in brief: as §1

[18] = target: Gal(b1-3)GalNAc
Method in brief: as §1

[19] = target: Gal(b1-3)GalNAc(a1-3)[Fuc(a1-2)]Gal(b1-4)Glc
Method in brief: as §1

[20] = target: Gal(b1-3)GalNAc(a1-3)[Fuc(a1-2)]Gal(b1-4)GlcNAc
Method in brief: as §1

[21] = target: Gal(b1-3)GalNAc(b1-3)Gal
Method in brief: as §1

[22] = target: Gal(b1-3)GalNAc(b1-3)Gal(a1-4)Gal(b1-4)Glc
Method in brief: as §1

[23] = target: Gal(b1-3)GalNAc(b1-4)Gal(b1-4)Glc
Method in brief: as §1

[24] = target: Gal(b1-3)GalNAc(b1-4)[Neu5Ac(a2-3)]Gal(b1-4)Glc
Method in brief: as §1

[25] = target: Gal(b1-3)GlcNAc
Method in brief: as §1

[26] = target: Gal(b1-3)GlcNAc(a1-3)Gal(b1-4)GlcNAc
Method in brief: as §1

[27] = target: Gal(b1-3)GlcNAc(a1-6)Gal(b1-4)GlcNAc
Method in brief: as §1

[28] = target: Gal(b1-3)GlcNAc(b1-2)Man
Method in brief: as §1

[29] = target: Gal(b1-3)GlcNAc(b1-2)Man(a1-3)[Gal(b1-3)GlcNAc(b1-2)Man(a1-6)]Man(b1-4)GlcNAc(b1-4)GlcNAc
Method in brief: as §1

[30] = target: Gal(b1-3)GlcNAc(b1-2)Man(a1-3)[Gal(b1-3)GlcNAc(b1-2)Man(a1-6)]Man(b1-4)GlcNAc(b1-4)[Fuc(a1-6)]GlcNAc
Method in brief: as §1

[31] = target: Gal(b1-3)GlcNAc(b1-2)Man(a1-3)[GlcNAc(b1-4)][Gal(b1-3)GlcNAc(b1-2)Man(a1-6)]Man(b1-4)GlcNAc(b1-4)GlcNAc
Method in brief: as §1

[32] = target: Gal(b1-3)GlcNAc(b1-2)[Gal(b1-3)GlcNAc(b1-6)]Man(a1-6)[Gal(b1-3)GlcNAc(b1-2)Man(a1-3)]Man(b1-4)GlcNAc(b1-4)GlcNAc
Method in brief: as §1

[33] = target: Gal(b1-3)GlcNAc(b1-3)Gal(b1-3)GlcNAc
Method in brief: as §1

[34] = target: Gal(b1-3)GlcNAc(b1-3)Gal(b1-4)Glc
Method in brief: as §1

[35] = target: Gal(b1-3)GlcNAc(b1-3)Gal(b1-4)GlcNAc
Method in brief: as §1

[36] = target: Gal(b1-3)GlcNAc(b1-3)Gal(b1-4)GlcNAc(b1-2)Man(a1-3)[Gal(b1-3)GlcNAc(b1-3)Gal(b1-4)GlcNAc(b1-2)Man(a1-6)]Man(b1-4)GlcNAc(b1-4)GlcNAc
Method in brief: as §1

[37] = target: Gal(b1-3)GlcNAc(b1-3)Gal(b1-4)GlcNAc(b1-2)[Gal(b1-3)GlcNAc(b1-3)Gal(b1-4)GlcNAc(b1-6)]Man(a1-6)[Gal(b1-3)GlcNAc(b1-3)Gal(b1-4)GlcNAc(b1-2)Man(a1-3)]Man(b1-4)GlcNAc(b1-4)[Fuc(a1-6)]GlcNAc
Method in brief: as §1

B1: FliC (Clostridium difficile) (protein)
chain: MRVNTNVSALIANNQMGRNVNGQSKSMEKLSSGVRIKRAADDAAGLAISEKMRAQIKGLDQAGRNVQDGISVVQTAEGSLEETGNILQRMRTLSLQSANEINNTEEREKIADELTQLKDEIERISSSTEFNGKKLLDGTSSTIRLQVGASYGTNVSGTSNNNNEIKIQLVNTASIMASAGITTASIGSMKAGGTTGTDAAKTMVSSLDAALKSLNSSRAKLGAQQNRLESTQNNLNNTLENVTAAESRIRDTDVASEMVNLSKMNILVQASQSMLAQANQQPQGVLQLLG
[1]
  glycan array binding signal (z-score): 8.29
[2]
  glycan array binding signal (z-score): -0.548
[3]
  glycan array binding signal (z-score): -0.906
[4]
  glycan array binding signal (z-score): 0.999
[5]
  glycan array binding signal (z-score): 1.28
[6]
  glycan array binding signal (z-score): -0.438
[7]
  glycan array binding signal (z-score): -0.786
[8]
  glycan array binding signal (z-score): 4.1
[9]
  glycan array binding signal (z-score): -0.374
[10]
  glycan array binding signal (z-score): -0.668
[11]
  glycan array binding signal (z-score): 1.34
[12]
  glycan array binding signal (z-score): 0.243
[13]
  glycan array binding signal (z-score): 0.077
[14]
  glycan array binding signal (z-score): 0.461
[15]
  glycan array binding signal (z-score): 0.699
[16]
  glycan array binding signal (z-score): -0.274
[17]
  glycan array binding signal (z-score): 1.18
[18]
  glycan array binding signal (z-score): 0.163
[19]
  glycan array binding signal (z-score): -0.474
[20]
  glycan array binding signal (z-score): -0.301
[21]
  glycan array binding signal (z-score): -0.119
[22]
  glycan array binding signal (z-score): -0.531
[23]
  glycan array binding signal (z-score): -0.33
[24]
  glycan array binding signal (z-score): 0.636
[25]
  glycan array binding signal (z-score): -0.124
[26]
  glycan array binding signal (z-score): -0.032
[27]
  glycan array binding signal (z-score): -0.584
[28]
  glycan array binding signal (z-score): 0.181
[29]
  glycan array binding signal (z-score): 0.119
[30]
  glycan array binding signal (z-score): 0.847
[31]
  glycan array binding signal (z-score): -0.179
[32]
  glycan array binding signal (z-score): 0.489
[33]
  glycan array binding signal (z-score): -0.389
[34]
  glycan array binding signal (z-score): -0.23
[35]
  glycan array binding signal (z-score): -0.049
[36]
  glycan array binding signal (z-score): 1.11
[37]
  glycan array binding signal (z-score): 0.605
